Source: article doi:10.1101/2023.05.22.541649
Results are given in words; binding and its absence hold for the method and conditions named.

Protein sequences, listed by entry. Tags and fused reporters are not part of them. Lines headed by an entry give the natural chain unless they say otherwise; changes in a name come on top. Chains listed by the source or under a name are the forms on record and can include a tag or linker.
GFP-CENP-T^1–242^/3D (Q96BT3, form named): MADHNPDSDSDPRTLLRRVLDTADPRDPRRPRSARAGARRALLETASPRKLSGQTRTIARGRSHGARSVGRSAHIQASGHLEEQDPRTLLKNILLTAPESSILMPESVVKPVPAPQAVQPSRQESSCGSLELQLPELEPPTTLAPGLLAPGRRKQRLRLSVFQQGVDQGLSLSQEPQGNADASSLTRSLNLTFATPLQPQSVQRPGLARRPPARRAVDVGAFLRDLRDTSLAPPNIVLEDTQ

Biological target: GFP-CENP-T^1–242^/3D (human) (UniProt Q96BT3)
Experiment: fluorescence intensity of single particles

For “GFP-CENP-T^1–242^/3D (from UniProt Q96BT3 1-242) (domain or fragment)”, the binding was “no binding”.
